In PMC2860243:
These are yes or no findings as the source states them, for the method shown. Binding seen in cells or lysates may run through a third protein. Some entries that bind do so weakly or less than the wild type. For some of these results: Sequences can lack the tags named with a protein. Values belong to the molecule of their own block, whether it stands above or below them.

By UniProt entry, the sequences of proteins in these tests, tags left out.
UniProt Q9R190: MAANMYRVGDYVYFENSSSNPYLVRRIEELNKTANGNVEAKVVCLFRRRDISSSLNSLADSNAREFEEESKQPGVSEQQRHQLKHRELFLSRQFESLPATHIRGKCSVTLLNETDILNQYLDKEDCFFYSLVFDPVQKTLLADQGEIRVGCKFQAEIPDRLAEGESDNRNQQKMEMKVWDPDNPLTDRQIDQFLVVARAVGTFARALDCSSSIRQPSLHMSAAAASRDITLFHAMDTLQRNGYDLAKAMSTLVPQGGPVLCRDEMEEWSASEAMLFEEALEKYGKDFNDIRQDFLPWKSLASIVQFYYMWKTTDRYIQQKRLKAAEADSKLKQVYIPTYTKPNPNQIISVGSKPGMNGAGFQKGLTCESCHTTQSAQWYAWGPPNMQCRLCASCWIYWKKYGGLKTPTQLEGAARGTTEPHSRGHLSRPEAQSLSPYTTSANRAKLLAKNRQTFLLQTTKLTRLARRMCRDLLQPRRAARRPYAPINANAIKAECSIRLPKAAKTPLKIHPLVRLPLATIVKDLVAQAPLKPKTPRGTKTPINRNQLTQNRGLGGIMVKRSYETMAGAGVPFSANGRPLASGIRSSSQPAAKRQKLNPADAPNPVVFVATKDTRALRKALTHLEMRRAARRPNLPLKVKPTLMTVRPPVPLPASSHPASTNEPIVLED
UniProt P20263: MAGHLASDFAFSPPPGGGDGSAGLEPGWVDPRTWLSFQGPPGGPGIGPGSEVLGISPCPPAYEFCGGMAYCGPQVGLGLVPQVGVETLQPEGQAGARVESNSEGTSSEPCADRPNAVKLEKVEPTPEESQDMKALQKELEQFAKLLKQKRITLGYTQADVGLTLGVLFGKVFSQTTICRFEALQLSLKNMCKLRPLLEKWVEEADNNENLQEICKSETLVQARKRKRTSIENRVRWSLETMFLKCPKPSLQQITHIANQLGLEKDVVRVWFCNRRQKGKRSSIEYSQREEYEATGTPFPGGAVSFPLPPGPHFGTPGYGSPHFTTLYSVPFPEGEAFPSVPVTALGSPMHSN
UniProt Q8BX22: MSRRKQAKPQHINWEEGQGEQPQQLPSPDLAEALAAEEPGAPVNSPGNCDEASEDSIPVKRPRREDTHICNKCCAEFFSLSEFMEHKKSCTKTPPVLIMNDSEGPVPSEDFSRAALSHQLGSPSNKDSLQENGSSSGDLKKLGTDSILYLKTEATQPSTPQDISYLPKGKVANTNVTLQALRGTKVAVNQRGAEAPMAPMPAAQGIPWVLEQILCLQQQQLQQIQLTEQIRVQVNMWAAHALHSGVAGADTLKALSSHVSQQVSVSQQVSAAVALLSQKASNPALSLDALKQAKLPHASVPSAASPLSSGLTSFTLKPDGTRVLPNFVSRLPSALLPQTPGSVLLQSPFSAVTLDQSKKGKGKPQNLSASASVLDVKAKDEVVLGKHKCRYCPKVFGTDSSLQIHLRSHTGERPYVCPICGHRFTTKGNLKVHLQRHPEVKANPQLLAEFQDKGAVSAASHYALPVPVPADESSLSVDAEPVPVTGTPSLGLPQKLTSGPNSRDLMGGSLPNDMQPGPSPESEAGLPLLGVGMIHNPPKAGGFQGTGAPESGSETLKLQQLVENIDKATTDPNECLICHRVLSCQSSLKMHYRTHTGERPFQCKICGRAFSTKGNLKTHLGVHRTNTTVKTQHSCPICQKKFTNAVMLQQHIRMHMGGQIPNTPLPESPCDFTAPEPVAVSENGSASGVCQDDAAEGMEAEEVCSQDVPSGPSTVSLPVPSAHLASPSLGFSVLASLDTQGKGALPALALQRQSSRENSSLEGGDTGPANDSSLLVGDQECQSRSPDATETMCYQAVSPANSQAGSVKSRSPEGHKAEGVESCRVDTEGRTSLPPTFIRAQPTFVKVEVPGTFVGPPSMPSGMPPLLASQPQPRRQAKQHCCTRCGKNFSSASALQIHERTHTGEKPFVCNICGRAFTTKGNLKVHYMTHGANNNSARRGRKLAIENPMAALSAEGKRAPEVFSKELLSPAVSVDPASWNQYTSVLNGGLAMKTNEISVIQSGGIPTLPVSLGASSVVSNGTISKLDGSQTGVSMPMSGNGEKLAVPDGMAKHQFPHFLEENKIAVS
UniProt Q6PDQ2: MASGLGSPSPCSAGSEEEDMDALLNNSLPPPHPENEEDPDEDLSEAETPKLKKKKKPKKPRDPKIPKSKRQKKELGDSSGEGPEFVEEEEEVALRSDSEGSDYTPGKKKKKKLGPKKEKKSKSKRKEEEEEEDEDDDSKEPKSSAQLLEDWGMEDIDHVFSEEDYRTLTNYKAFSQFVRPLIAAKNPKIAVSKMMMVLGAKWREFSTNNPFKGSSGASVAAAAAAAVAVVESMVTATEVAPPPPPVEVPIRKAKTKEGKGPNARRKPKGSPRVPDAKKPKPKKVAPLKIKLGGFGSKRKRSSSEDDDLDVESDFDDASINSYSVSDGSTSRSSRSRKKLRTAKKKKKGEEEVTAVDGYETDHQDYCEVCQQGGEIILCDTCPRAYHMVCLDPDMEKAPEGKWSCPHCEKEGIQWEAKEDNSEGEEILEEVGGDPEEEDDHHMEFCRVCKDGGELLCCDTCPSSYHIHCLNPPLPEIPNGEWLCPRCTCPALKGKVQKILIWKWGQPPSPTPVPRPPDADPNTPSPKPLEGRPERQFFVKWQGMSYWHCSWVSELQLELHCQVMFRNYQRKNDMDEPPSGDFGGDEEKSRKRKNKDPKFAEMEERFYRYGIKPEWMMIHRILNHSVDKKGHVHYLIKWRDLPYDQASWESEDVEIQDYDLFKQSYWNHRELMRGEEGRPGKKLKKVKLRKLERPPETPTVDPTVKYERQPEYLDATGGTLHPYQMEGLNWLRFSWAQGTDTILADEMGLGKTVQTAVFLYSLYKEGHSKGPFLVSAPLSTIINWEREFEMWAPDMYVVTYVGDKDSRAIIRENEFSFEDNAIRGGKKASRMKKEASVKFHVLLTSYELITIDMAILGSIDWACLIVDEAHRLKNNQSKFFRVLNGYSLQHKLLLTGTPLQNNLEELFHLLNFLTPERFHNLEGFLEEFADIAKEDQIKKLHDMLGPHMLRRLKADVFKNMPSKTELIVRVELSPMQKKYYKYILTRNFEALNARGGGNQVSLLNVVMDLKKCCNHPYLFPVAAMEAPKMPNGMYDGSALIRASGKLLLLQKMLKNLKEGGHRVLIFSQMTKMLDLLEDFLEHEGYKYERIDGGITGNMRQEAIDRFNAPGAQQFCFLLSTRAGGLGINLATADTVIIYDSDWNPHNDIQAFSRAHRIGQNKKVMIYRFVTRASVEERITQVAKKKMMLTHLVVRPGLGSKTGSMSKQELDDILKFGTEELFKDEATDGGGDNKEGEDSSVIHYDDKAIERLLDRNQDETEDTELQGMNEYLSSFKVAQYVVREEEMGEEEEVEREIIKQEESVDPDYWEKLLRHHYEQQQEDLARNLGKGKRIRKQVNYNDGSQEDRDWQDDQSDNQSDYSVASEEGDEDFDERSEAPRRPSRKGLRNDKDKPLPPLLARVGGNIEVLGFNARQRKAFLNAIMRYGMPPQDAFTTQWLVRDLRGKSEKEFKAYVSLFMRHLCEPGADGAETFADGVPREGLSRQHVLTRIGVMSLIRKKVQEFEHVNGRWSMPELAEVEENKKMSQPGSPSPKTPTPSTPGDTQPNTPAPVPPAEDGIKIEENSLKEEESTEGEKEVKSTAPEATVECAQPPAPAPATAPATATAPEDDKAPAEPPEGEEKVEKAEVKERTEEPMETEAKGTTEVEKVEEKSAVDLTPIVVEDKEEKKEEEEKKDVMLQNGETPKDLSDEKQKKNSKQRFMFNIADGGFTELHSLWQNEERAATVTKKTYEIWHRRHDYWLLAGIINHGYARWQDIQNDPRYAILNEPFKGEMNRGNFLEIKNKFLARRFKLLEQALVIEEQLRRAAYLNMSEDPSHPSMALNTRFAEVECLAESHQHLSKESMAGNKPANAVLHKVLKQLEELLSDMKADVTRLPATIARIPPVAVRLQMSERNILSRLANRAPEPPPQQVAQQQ
UniProt Q8K4B0: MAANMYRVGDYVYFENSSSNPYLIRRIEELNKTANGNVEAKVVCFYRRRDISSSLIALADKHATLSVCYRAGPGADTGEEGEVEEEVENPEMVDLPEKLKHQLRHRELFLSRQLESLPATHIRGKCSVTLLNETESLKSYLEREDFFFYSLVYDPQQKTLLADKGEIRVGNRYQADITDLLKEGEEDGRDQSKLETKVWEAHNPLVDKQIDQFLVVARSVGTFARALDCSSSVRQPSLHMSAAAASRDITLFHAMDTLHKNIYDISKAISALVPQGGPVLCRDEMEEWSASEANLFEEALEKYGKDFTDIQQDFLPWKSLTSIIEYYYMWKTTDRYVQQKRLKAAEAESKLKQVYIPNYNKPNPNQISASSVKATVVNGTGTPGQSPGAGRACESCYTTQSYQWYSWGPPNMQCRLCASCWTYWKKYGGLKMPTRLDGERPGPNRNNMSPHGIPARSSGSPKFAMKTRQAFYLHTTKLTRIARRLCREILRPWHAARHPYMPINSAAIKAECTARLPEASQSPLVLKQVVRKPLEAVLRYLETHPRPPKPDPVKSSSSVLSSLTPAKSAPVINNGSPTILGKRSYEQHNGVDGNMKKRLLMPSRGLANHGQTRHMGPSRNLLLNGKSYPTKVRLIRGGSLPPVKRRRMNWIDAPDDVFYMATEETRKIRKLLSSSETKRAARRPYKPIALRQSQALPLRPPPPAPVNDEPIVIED

Tests used:
[1] = biological target: T1, GST-Esrrb (mouse) (UniProt Q61539); assay: pull-down; GST fusion on glutathione-sepharose beads, equilibrated in C-100*, incubated with ESC nuclear extract (46C) for 2 hr at 4°C with Benzonase; western blot; only the target purified
T1 sequence: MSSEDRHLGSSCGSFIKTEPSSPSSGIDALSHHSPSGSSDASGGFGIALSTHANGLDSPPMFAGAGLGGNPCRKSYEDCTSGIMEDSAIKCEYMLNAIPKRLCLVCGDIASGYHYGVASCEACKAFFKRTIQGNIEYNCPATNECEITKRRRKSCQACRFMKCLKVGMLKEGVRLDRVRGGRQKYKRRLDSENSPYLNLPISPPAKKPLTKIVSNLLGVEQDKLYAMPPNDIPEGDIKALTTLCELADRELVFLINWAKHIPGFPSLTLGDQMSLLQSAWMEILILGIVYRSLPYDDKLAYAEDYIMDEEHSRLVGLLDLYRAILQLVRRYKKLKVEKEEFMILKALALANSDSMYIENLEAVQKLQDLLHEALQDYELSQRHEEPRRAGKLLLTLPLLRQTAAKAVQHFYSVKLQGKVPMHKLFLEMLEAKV

[2] = biological target: Mta2 (mouse (endogenous in mouse ESCs)) (UniProt Q9R190); assay: co-IP; antibody beads (20 μl) with 200 μl ESC nuclear extract, C-100* washes, 4°C, Benzonase where indicated; western blot
[3] = biological target: Oct4 (Pou5f1) (mouse (endogenous in 46C ESCs)) (UniProt P20263); assay: as above
[4] = biological target: T2, F-Nac1 (mouse) (UniProt Q7TSZ8); assay: as above
T2 sequence: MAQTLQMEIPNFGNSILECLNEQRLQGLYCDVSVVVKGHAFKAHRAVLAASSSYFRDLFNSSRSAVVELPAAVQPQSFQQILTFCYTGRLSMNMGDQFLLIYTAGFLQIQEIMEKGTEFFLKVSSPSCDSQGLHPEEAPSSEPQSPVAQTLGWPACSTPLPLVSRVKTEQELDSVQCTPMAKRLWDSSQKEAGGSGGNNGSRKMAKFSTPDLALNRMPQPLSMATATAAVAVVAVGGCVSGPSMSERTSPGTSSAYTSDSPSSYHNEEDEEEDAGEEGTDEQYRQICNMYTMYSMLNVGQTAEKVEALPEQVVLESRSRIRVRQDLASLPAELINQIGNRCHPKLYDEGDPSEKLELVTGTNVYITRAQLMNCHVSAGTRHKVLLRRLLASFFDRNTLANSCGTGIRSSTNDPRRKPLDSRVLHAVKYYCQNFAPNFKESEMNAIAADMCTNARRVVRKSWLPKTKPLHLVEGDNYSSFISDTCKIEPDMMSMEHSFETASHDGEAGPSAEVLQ

[5] = biological target: T3, GST-Dax1 (mouse) (UniProt Q61066); assay: pull-down; GST fusion on glutathione-sepharose beads, equilibrated in C-100*, incubated with ESC nuclear extract (46C) for 2 hr at 4°C with Benzonase; western blot; only the target purified
T3 sequence: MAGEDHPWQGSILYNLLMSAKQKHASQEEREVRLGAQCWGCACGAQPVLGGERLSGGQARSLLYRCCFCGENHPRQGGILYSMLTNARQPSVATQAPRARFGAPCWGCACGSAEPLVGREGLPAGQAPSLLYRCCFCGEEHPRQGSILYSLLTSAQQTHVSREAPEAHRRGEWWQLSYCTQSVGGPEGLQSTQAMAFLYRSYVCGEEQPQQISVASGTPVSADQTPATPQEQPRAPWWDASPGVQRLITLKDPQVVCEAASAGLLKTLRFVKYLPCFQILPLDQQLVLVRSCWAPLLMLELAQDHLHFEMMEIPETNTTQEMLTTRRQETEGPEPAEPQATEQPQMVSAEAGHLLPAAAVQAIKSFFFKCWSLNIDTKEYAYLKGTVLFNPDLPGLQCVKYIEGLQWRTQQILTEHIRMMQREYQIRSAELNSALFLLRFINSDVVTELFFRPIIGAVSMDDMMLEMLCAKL

[6] = biological target: Sall4 (mouse (endogenous in mouse ESCs)) (UniProt Q8BX22); assay: co-IP; antibody beads (20 μl) with 200 μl ESC nuclear extract, C-100* washes, 4°C, Benzonase where indicated; western blot

binding [1]: binds
Molecule: Ep400 (from UniProt Q8CHI8 1-3072)

binding [2]: binds
Molecule: Mi2β (Chd4) (from UniProt Q6PDQ2 1-1915)

binding [2]: binds
Molecule: Mta1 (from UniProt Q8K4B0 1-715)

binding [3]: binds | binding [4]: binds | binding [1]: binds | binding [5]: binds
Molecule: Sall4 (from UniProt Q8BX22 1-1067)

binding [6]: binds
B1: V5-tagged Zfp143 (protein, UniProt O70230 1-638)
chain: MLLAQINRDSQGMTEFPGGGMEAQHVTLCLTEAVTVADGDNLENMEGVSLQAVTLADGSTAYIQHNSKDGRLIDGQVIQLEDGSAAYVQHVPIPKSTGDSLRLEDGQAVQLEDGTTAFIHHTSKDSYDQSSLQAVQLEDGTTAYIHHAVQVPQSDTILAIQADGTVAGLHTGDATIDPDTISALEQYAAKVSIDGSDGVTSTGMIGENEQEKKMQIVLQGHATRVTPKSQQSGEKAFRCKYDGCGKLYTTAHHLKVHERSHTGDRPYQCEHSGCGKAFATGYGLKSHFRTHTGEKPYRCSEDNCTKSFKTSGDLQKHIRTHTGERPFKCPIEGCGRSFTTSNIRKVHIRTHTGERPYYCTEPGCGRAFASATNYKNHVRIHTGEKPYVCTVPGCDKRFTEYSSLYKHHVVHTHSKPYNCNHCGKTYKQISTLAMHKRTAHNDTEPIEEEQEAFFEPPPGQGDDVLKGSQITYVTGVDGEDIVSTQVATVTQSGLSQQVTLISQDGTQHVNISQADMQAIGNTITMVTQDGTPITVPTHDAVISSAGTHSVAMVTAEGTEGQQVAIVAQDLAAFHTASSEMGHQQHSHHLVTTETRPLTLVATSNGTQIAVQLGEQPSLEEAIRIASRIQQGETPGLDD

binding [1]: binds
B2: V5-Dax1 (protein, UniProt Q61066 1-472)
chain: MAGEDHPWQGSILYNLLMSAKQKHASQEEREVRLGAQCWGCACGAQPVLGGERLSGGQARSLLYRCCFCGENHPRQGGILYSMLTNARQPSVATQAPRARFGAPCWGCACGSAEPLVGREGLPAGQAPSLLYRCCFCGEEHPRQGSILYSLLTSAQQTHVSREAPEAHRRGEWWQLSYCTQSVGGPEGLQSTQAMAFLYRSYVCGEEQPQQISVASGTPVSADQTPATPQEQPRAPWWDASPGVQRLITLKDPQVVCEAASAGLLKTLRFVKYLPCFQILPLDQQLVLVRSCWAPLLMLELAQDHLHFEMMEIPETNTTQEMLTTRRQETEGPEPAEPQATEQPQMVSAEAGHLLPAAAVQAIKSFFFKCWSLNIDTKEYAYLKGTVLFNPDLPGLQCVKYIEGLQWRTQQILTEHIRMMQREYQIRSAELNSALFLLRFINSDVVTELFFRPIIGAVSMDDMMLEMLCAKL

binding [3]: binds | binding [6]: binds | binding [5]: binds
B3: Sall1 (protein, UniProt Q9ER74 1-1322)
chain: MSRRKQAKPQHFQSDPEVASLPRRDGDTEKGQPSRPTKSKDAHVCGRCCAEFFELSDLLLHKKSCTKNQLVLIVNESPASPAKTFPPGPSLNDPDDQMKDAANKADQEDCSDLSEPKGLDREESMEVEVPVATTTTTTTGGSGGSGGSTLSGVTNITTPSCHSGCSSGTSAITTSLPQLGDLTTLGNFSVINSNVIIENLQSTKVAVAQFSQEARCGGASGGKLLISTLMEQLLALQQQQIHQLQLIEQIRHQILLLASQSADLPAAPSIPSQGTLRTSANPLTTLSSHLSQQLAVAAGLAQSLASQSANISGVKQLPHVQLPQSSSGTSIVPPSGGTSPNMSIVTAAVPTPSSEKVASNAGASHVSSPAVSASSSPAFAISSLLSPESNPLLPQPTPANAVFPTPLPNIATTAEDLNSLSALAQQRKSKPPNVTAFEAKSTSDEAFFKHKCRFCAKVFGSDSALQIHLRSHTGERPFKCNICGNRFSTKGNLKVHFQRHKEKYPHIQMNPYPVPEHLDNVPTSTGIPYGMSIPSEKPVTSWLDTKPVLPTLTTSVGLPLPPTLPSLTPFIKTEEPAPIPISHSAASPQGSVKSDSGAPDLATRNPSGVPEEVEGSAVPPFGGKGEESNMASSAVPTAGNSTLNSPVADGGPGGTTFTNPLLPLMSEQFKAKFPFGGLLDSAQASETSKLQQLVENIDKKATDPNECIICHRVLSCQSALKMHYRTHTGERPFKCKICGRAFTTKGNLKTHYSVHRAMPPLRVQHSCPICQKKFTNAVVLQQHIRMHMGGQIPNTPVPDNYPESMESDTGSFDEKNFDDLDNFSDENMEECPEGSIPDTPKSADASQDSLSSSPLPLEMSSIAALENQMKMINAGLAEQLQASLKSVENGSMEGDVLTNDSSSVGGDMESQSAGSPAISESTSSMQALSPSNSTQEFHKSPGMEEKPQRVGPGEFANGLSPTPVNGGALDLTSSHAEKIIKEDSLGILFPFRDRGKFKNTACDICGKTFACQSALDIHYRSHTKERPFICTVCNRGFSTKGNLKQHMLTHQMRDLPSQLFEPSSNLGPNQNSAVIPANSLSSLIKTEVNGFVHVSPQDSKDAPTSHVPQGPLSSSATSPVLLPALPRRTPKQHYCNTCGKTFSSSSALQIHERTHTGEKPFACTICGRAFTTKGNLKVHMGTHMWNSTPARRGRRLSVDGPMTFLGGNPVKFPEMFQKDLAARSGSGDPSSFWNQYTAALSNGLAMKANEISVIQNGGIPPIPGSLGSGSSPISGLTGNVEKLGNSEPSAPLAGLEKMASSENGTNFRFTRFVEDSKEIVTS

binding [1]: binds
B4: FLAG-tagged Tcfcp2l1 (F-Tcfcp2l1) (protein, UniProt Q3UNW5 1-479)
chain: MLFWHTQPEHYNQHNSGSYLRDVLALPIFKQEEPQLSPENGARLPPLQYVLCAATSPAVKLHEETLTYLNQGQSYEIRLLENRKLGDFQDLNTKYVKSIIRVVFHDRRLQYTEYQQLEGWRWSRPGDRILDIDIPLSVGILDPRASPTQLNAVEFLWDPSKRASAFIQVHCISTEFTPRKHGGEKGVPFRVQIDTFKQNESGDYSEHLHSASCQIKVFKPKGADRKQKTDREKMEKRTAQEKEKYQPSYETTILTECSPWPDVPYQANNTPSPSYNGSPNSFGLREGNSSPNHPVEPLPLGSDHLLPSASIQDAQQWLHRNRFSQFCWLFASFSGADLLKMSRDDLVQVCGPADGIRLFNAIKGRNVRPKMTIYVCQELEQNQLPLPQKQDDSGDNSLCVYHAIFLEELTTLELTEKIASLYSIPPQHIHRVYRQGPAGIHVVVSNEMVQNFQDESCFILSTLKAESNDGYHIILKCGL
